{"source": "patent US20250314646", "key": {"Thrombin": {"system": "Thrombin", "test": "binding assay", "conditions": "purified native protein, protein details: Sigma-Millipore, single-stranded DNA"}, "PDGF-BB": {"target": "PDGF-BB (UniProt P01127)", "test": "binding assay", "conditions": "CITED Green et al. 1996 (apparently); value stated for 41T aptamer, not measured here; purified recombinant protein; label: 5' fluorescein, 3' Black Hole Quencher 1; single-stranded DNA"}}, "note": "Construct, isoform or probe ends are uncertain for at least one entry.", "data": [{"sequence": "TTTTTTAGTCCGTGGTAGGGCAGGTTGGGGTGACT [HD22 aptamer labelled (FIG. 4C)]", "values": [{"measurement": "binding result", "setting": "Thrombin; 5' DBCO-TEG via five-thymidine linker, thymine-linked Black Hole Quencher 1, fluorescence thermal melt in solution, Tm about 42 C unbound to about 52 C bound, 1x PBS, 1 mM MgCl2, 0.1 mg/ml BSA, label: 3' FAM, variant of HD22 aptamer", "result": "binds"}]}, {"sequence": "TACTCAGGGCACTGCAAGCAATTGTGGTCCCAATGGGCTGAGTA [41T aptamer (solution, FIG. 4A)]", "values": [{"measurement": "Kd", "setting": "PDGF-BB", "result": 0.13, "unit": "nM"}]}, {"sequence": "AGTCCGTGGTAGGGCAGGTTGGGGTGAC [HD22 aptamer]", "values": [{"measurement": "Kd", "setting": "Thrombin; CITED Tasset et al. 1997 (apparently), value stated for HD22 aptamer, not measured here", "result": 0.5, "unit": "nM"}]}]}
